Data as given in PubChem BioAssay AID1224830 (NIAID, 2016).

Purpose: 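Regulators of TLR4 signalling towards TNF-alpha in macrophage-like cells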 (primary screen)
Cells: human THP-1 monocytic leukaemia cells, TNF dual-luciferase reporter clone, PMA-differentiated to macrophage-like cells
Knock-down reagent: siRNA pool against human genes, 50 nM
Duration: LPS for 4 h, given about 3 days after siRNA transfection
Conditions: bacterial LPS (TLR4 ligand), 10 ng/ml
Measurement: 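TNF firefly reporter luminescence divided by renilla, normalised to the plate median, then turned into a robust z-score for each replicate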
Direction: TNF reporter robust z-score: higher = stronger TNF reporter response to LPS
Rule for the call: 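Each well counts as active if its z-score is over 2.8 or under -1.5; controls are left without a call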
The deposit covers about 18,000 reagents; below is a part drawn at random. About 2,900 of all reagents (16%) were called active. 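Calls are made per well; low scores hint the gene aids the LPS response, high scores that it dampens it.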 Repeated entries: four replicate wells of each siRNA pool.

gene | TNF reporter robust z-score | outcome
UBAP2 | 2.11 | inactive
UBAP2 | 2.28 | inactive
UBAP2 | -0.15 | inactive
UBAP2 | 0.76 | inactive
INHBC | 0.42 | inactive
INHBC | 0.02 | inactive
INHBC | -0.32 | inactive
INHBC | 0.24 | inactive
NIFK | -1.26 | inactive
NIFK | -1.07 | inactive
NIFK | -1.16 | inactive
NIFK | -0.43 | inactive
PAQR4 | -0.31 | inactive
PAQR4 | -0.2 | inactive
PAQR4 | 0.92 | inactive
PAQR4 | -0.81 | inactive
ATP6V0D1 | 0.55 | inactive
ATP6V0D1 | 0.34 | inactive
ATP6V0D1 | -0.05 | inactive
ATP6V0D1 | 0.72 | inactive
CT47A1 | 0.42 | inactive
CT47A1 | 3.57 | active
CT47A1 | 5.18 | active
CT47A1 | 3.88 | active
SLMAP | -0.79 | inactive
SLMAP | 0.87 | inactive
SLMAP | -0.58 | inactive
SLMAP | -0.99 | inactive
RPL17 | 0.91 | inactive
RPL17 | 0.48 | inactive
RPL17 | -0.3 | inactive
RPL17 | 1.49 | inactive
OCA2 | -0.88 | inactive
OCA2 | -0.31 | inactive
OCA2 | -0.35 | inactive
OCA2 | 0.09 | inactive
C10orf71 | 0.26 | inactive
C10orf71 | 0.17 | inactive
C10orf71 | 0.44 | inactive
C10orf71 | -0.44 | inactive
ECSCR | -0.71 | inactive
ECSCR | -0.78 | inactive
ECSCR | -1.48 | inactive
ECSCR | -0.79 | inactive
PIK3C2B | -0.9 | inactive
PIK3C2B | -0.8 | inactive
PIK3C2B | -0.25 | inactive
PIK3C2B | -0.31 | inactive
SNPH | -0.06 | inactive
SNPH | 0.26 | inactive
SNPH | 1.51 | inactive
SNPH | 0.81 | inactive
KCTD5 | 0.13 | inactive
KCTD5 | -0.9 | inactive
KCTD5 | -1.11 | inactive
KCTD5 | -0.49 | inactive
KDM5B | 0.14 | inactive
KDM5B | 0.01 | inactive
KDM5B | -0.28 | inactive
KDM5B | 25.1 | active
GRIK3 | -0.25 | inactive
GRIK3 | 1.48 | inactive
GRIK3 | -0.77 | inactive
GRIK3 | -0.26 | inactive
CPS1 | 0.51 | inactive
CPS1 | 1.36 | inactive
CPS1 | 0.73 | inactive
CPS1 | 0.78 | inactive
SH2D1A | -0.24 | inactive
SH2D1A | -0.45 | inactive
SH2D1A | 0.14 | inactive
SH2D1A | 0.28 | inactive
DNLZ | 0.81 | inactive
DNLZ | 1.62 | inactive
DNLZ | 2.35 | inactive
DNLZ | 3.05 | active
LEPROTL1 | -0.14 | inactive
LEPROTL1 | 0.04 | inactive
LEPROTL1 | 0.13 | inactive
LEPROTL1 | 0.65 | inactive
ASB17 | 3.8 | active
ASB17 | -1.33 | inactive
ASB17 | -0.34 | inactive
ASB17 | -0.28 | inactive
FEM1B | -0.25 | inactive
FEM1B | -1.02 | inactive
FEM1B | -0.58 | inactive
FEM1B | -0.23 | inactive
ADH7 | 1.93 | inactive
ADH7 | 1.49 | inactive
ADH7 | -0.38 | inactive
ADH7 | 3.23 | active
EPAS1 | -1.49 | inactive
EPAS1 | -1.41 | inactive
EPAS1 | -1.1 | inactive
EPAS1 | -0.4 | inactive
JAM3 | -0.25 | inactive
JAM3 | -0.82 | inactive
JAM3 | -0.8 | inactive
JAM3 | -0.01 | inactive
OR52E2 | 0.85 | inactive
OR52E2 | -0.19 | inactive
OR52E2 | 0.24 | inactive
OR52E2 | -0.31 | inactive
MBD3 | -1.62 | active
MBD3 | -1.54 | active
MBD3 | -1.66 | active
MBD3 | -1.71 | active
MKS1 | -0.04 | inactive
MKS1 | 2.88 | active
MKS1 | 0.68 | inactive
MKS1 | 0.97 | inactive
OR4K2 | 0.17 | inactive
OR4K2 | 0.95 | inactive
OR4K2 | 0.18 | inactive
OR4K2 | 0.91 | inactive
BTN2A2 | -0.04 | inactive
BTN2A2 | 0.71 | inactive
BTN2A2 | -0.53 | inactive
BTN2A2 | 0.5 | inactive
MCUR1 | 0.92 | inactive
MCUR1 | 0.65 | inactive
MCUR1 | 0 | inactive
MCUR1 | 1.58 | inactive
FAM204A | 2.96 | active
FAM204A | -0.32 | inactive
FAM204A | 0.4 | inactive
FAM204A | 0.7 | inactive
DEFB116 | -1.13 | inactive
DEFB116 | -0.86 | inactive
DEFB116 | -1.69 | active
DEFB116 | -0.16 | inactive
LMO3 | 2 | inactive
LMO3 | 3.15 | active
LMO3 | 0.82 | inactive
LMO3 | 2.25 | inactive
ILRUN | 1.32 | inactive
ILRUN | 0.72 | inactive
ILRUN | 0.85 | inactive
ILRUN | 1.61 | inactive

Records listed above called active:
gene | TNF reporter robust z-score | outcome
CT47A1 | 3.57 | active
CT47A1 | 5.18 | active
CT47A1 | 3.88 | active
KDM5B | 25.1 | active
DNLZ | 3.05 | active
ASB17 | 3.8 | active
ADH7 | 3.23 | active
MBD3 | -1.62 | active
MBD3 | -1.54 | active
MBD3 | -1.66 | active
MBD3 | -1.71 | active
MKS1 | 2.88 | active
FAM204A | 2.96 | active
DEFB116 | -1.69 | active
LMO3 | 3.15 | active
